Source: ChEMBL document CHEMBL3988442, “University of Dundee, Small-Polar-MMV Screening Library” (2021).

Amino acid sequences for entries named in this document (tags omitted). Residues count along the entry.
UniProt P9WPC5, whole entry: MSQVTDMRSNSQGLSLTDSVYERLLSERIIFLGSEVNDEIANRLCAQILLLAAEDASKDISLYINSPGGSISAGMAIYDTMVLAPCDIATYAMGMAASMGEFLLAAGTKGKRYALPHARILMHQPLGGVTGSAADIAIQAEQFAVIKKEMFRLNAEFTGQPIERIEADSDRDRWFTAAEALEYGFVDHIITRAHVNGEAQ
UniProt P9WPC3, whole entry partner: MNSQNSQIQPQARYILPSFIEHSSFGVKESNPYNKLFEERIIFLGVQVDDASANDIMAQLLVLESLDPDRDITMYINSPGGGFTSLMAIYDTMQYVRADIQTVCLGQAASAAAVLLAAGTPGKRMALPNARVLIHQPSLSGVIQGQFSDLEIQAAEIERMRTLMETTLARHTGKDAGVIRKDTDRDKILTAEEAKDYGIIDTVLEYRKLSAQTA
UniProt P9WNZ1, whole entry: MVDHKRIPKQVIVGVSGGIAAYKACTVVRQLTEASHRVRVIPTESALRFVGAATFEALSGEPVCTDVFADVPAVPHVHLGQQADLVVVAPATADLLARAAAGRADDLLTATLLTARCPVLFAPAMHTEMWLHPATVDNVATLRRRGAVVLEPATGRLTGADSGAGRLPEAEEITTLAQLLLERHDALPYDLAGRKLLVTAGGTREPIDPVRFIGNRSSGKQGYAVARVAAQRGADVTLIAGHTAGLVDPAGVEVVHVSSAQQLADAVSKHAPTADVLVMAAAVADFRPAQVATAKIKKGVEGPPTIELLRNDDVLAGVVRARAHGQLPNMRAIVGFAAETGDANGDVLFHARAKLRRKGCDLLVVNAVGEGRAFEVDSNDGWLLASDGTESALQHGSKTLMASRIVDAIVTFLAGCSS
UniProt Q8IDJ8, 1-583: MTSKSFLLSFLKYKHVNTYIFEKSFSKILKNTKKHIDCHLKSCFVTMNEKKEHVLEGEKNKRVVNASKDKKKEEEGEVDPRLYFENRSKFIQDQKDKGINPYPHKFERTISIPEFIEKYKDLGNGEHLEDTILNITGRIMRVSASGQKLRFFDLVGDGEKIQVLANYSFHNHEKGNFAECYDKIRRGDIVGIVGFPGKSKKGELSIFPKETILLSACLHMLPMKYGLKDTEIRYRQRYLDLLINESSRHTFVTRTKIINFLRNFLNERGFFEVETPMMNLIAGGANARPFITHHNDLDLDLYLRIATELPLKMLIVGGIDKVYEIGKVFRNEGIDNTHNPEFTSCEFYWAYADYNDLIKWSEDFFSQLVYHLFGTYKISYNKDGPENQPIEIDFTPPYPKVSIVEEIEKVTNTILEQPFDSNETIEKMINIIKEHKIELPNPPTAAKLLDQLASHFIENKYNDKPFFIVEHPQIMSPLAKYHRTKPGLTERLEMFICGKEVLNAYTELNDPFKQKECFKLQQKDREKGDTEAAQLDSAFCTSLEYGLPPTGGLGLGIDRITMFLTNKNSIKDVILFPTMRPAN
UniProt Q4DA54, 1-478: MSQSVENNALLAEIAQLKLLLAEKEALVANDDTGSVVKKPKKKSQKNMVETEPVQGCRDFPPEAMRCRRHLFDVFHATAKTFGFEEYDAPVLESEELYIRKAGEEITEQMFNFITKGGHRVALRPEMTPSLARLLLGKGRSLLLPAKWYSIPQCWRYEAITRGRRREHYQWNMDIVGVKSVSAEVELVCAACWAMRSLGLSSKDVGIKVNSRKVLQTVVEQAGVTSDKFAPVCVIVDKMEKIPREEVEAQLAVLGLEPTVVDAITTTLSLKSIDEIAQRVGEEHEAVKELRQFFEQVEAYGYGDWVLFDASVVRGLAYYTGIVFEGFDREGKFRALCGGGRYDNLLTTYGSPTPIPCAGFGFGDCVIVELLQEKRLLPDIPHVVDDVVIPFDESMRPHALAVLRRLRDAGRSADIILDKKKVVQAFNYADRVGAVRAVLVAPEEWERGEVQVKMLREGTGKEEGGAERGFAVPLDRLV
UniProt I6X8D2, whole entry: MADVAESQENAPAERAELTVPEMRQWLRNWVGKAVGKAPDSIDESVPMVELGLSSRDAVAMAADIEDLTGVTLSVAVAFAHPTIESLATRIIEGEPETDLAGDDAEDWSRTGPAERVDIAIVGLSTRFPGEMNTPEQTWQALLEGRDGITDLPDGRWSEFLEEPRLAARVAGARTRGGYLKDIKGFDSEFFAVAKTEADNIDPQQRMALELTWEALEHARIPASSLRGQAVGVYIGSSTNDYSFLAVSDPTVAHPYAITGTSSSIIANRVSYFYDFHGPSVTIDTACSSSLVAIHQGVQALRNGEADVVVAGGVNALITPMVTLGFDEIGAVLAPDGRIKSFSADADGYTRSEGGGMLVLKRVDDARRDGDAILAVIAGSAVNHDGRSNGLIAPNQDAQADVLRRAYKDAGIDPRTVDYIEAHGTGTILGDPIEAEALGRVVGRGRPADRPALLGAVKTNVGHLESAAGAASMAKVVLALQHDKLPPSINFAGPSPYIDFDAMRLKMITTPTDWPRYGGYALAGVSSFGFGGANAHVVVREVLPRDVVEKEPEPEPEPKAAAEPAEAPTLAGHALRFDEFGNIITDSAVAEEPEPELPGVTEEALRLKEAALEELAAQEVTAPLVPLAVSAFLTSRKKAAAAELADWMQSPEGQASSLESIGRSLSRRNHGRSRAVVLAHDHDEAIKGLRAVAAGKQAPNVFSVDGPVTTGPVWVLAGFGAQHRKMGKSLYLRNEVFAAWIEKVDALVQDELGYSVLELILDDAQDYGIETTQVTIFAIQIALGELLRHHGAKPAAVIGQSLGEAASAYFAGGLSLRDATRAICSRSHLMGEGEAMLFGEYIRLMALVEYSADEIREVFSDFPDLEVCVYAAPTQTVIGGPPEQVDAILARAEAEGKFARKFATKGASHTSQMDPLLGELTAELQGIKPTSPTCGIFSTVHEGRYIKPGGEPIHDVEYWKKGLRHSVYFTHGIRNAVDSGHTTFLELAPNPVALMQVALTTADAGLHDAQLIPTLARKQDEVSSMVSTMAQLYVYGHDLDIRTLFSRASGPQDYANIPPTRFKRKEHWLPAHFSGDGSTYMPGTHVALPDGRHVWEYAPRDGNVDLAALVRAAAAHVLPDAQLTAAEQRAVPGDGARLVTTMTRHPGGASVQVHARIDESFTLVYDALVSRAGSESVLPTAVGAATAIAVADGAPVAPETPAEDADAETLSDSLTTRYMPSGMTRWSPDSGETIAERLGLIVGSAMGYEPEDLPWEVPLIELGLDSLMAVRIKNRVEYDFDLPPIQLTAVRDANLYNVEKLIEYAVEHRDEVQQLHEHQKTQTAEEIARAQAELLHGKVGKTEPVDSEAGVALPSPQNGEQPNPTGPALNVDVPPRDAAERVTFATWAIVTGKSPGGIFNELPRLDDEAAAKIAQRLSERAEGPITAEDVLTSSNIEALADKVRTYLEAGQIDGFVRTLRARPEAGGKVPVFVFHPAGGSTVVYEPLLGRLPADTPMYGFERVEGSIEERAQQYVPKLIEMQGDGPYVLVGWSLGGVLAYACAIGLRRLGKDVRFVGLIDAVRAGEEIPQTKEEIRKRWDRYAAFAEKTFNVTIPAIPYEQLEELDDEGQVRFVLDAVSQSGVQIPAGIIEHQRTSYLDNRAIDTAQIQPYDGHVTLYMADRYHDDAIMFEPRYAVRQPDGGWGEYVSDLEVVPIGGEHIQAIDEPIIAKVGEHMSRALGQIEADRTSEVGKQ

Values are the deposited “Percent Effect”, in %. How 0% and 100% were set is not recorded. Most values in the screen are low, and negative values occur. This is an unselected part of the compounds tested. A dash means the value is not listed here; it may have been measured.

ClpP1P2: 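ClpP1P2, Mycobacterium tuberculosis (UniProt P9WPC5 and UniProt P9WPC3). Protease assay of ClpP1P2, read by the AMC dye that it sets free. Tested at 50 µM. Direction is inferred from only a few compounds that gave an IC50; most scored high, so higher reads as stronger inhibition. Most other retested compounds had strongly negative values. Size under these conditions: about 69,000 compounds, about 10 of them at 50% or above in at least one test.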
CoaBC: 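Enzyme assay of CoaBC with a phosphate dye (Biomol Green) read at 650 nm. Target: Coenzyme A biosynthesis protein CoaBC, Mycobacterium tuberculosis (UniProt P9WNZ1). Compounds at 30 µM. Higher reads as stronger inhibition, judged from the few compounds that gave an IC50. Most strong results did not repeat in a second test. Of about 67,000 compounds tested this way, about 40 (0.06%) reached 50% or more in at least one test.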
PfKRS1: 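Enzyme assay of the cytosolic lysyl-tRNA synthetase in 384-well plates, read by luminescence. Target: Lysine-tRNA ligase, Plasmodium falciparum 3D7 (UniProt Q8IDJ8). Tested at 30 µM. Direction is inferred from only a few compounds that gave an IC50; most scored high, so higher reads as stronger inhibition. About 69,000 compounds were tested under these conditions; 0.071% (about 49) showed 50% or more at least once.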
TcHisRS: 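Enzyme assay of histidyl-tRNA synthetase; the read-out is not stated. Target: Histidine-tRNA ligase, Trypanosoma cruzi CL Brener (UniProt Q4DA54). Tested at 30 µM. Direction is inferred from retests: higher values go with stronger inhibition. About 69,000 compounds were tested under these conditions; 0.045% (about 31) showed 50% or more at least once.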
Pks13 thioesterase: 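Polyketide synthase Pks13, Mycobacterium tuberculosis (UniProt I6X8D2). Enzyme assay of the thioesterase domain of polyketide synthase 13; the read-out is not stated. Tested at 30 µM. Higher reads as stronger inhibition (inferred from which compounds were picked for retests). Of about 67,000 compounds tested this way, about 300 (0.46%) reached 50% or more in at least one test.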

Compound,ClpP1P2,CoaBC,PfKRS1,TcHisRS,Pks13 thioesterase
CN1CCCC1c1cncc(C(=O)NCCN2CCCC2)n1 (centres undefined),5.583%,6.994%,1.173%,3.101%,-4.113%
O=S(=O)(C1CC1)N1CCC2(CN(c3ncccn3)C2)C1,6.711%,-0.2463%,6.861%,-2.062%,-
O=C1COC2(CCN(Cc3ccco3)CC2)CN1,4.371%,4.01%,-5.461%,-1.22%,-2.997%
CCn1cc(CN(C)S(=O)(=O)c2ccc(C)c(C)c2)cn1,-7.457%,12.93%,2.557%,4.348%,-2.274%
COCc1nc(C(=O)N2CCCC2c2cccs2)cs1 (centres undefined),-6.662%,2.672%,0.7198%,1.69%,-14.41%
CC(C)n1ccnc1CN1CCCN(C(=O)c2cc(Cl)c[nH]2)CC1,18.71%,2.332%,0.6799%,3.053%,0.4335%
CC(C)COCCCNC(=O)NC(C)c1ccc(-n2cncn2)cc1 (centres undefined),1.621%,-,5.071%,3.185%,-
COc1ccc(C2CCCN2C(=O)NCCn2ccnc2)cc1OC (centres undefined),-4.758%,-1.579%,0.1673%,2.053%,-30.52%
Cc1noc(C)c1CC(=O)NCC(C)N1CCOCC1 (centres undefined),8.31%,-4.963%,8.942%,9.827%,-14.36%
CCn1nnc2c1CCN(C(=O)c1ccc3c(c1)OCO3)C2COC (centres undefined),9.491%,1.025%,-0.1486%,1.149%,11.73%
CC(C)c1noc(Cn2ncn3cccc3c2=O)n1,6.146%,9.639%,2.566%,7.447%,21.78%
CCOC(=O)c1coc(N2CCC(C(O)CC(C)C)CC2)n1 (centres undefined),-11.73%,2.622%,1.54%,7.143%,6.57%
Cc1nc2n(n1)CC(NCCc1cccs1)CC2 (centres undefined),5.381%,-0.6329%,6.586%,5.419%,25.68%
Cc1nn(C)c(C)c1CN(C(=O)c1cnc(O)cn1)C(C)C,-10.54%,-0.3226%,1.987%,3.448%,-21.58%
CSc1ccccc1C(=O)N1C[C@H]2CC[C@@H]1CN(C(=O)N(C)C)C2,-7.874%,1.603%,0.5076%,1.754%,-
Cc1ccccc1N1CCN(CCS(=O)(=O)c2ccc(Br)cc2)CC1,1.786%,13.73%,-0.5849%,4.255%,-6.068%
O=C(O)c1cncc(Cc2ccccc2F)c1,8.073%,5.128%,2.593%,-0.3759%,3.521%
Cc1nccn1[C@@H]1CC[C@@H](NC(=O)CCCn2cccn2)[C@H]1O,-0.8888%,3.653%,-1.709%,4.857%,-11.25%
O=C(CCc1ccccc1F)NS(=O)(=O)c1ccc2c(c1)OCCO2,-11.42%,-2.926%,-2.926%,-2.254%,-13.1%
COc1cccc2cc(CNC(=O)N3CCCC(O)C3)oc12 (centres undefined),-5.313%,-4.37%,3.97%,0%,-31.79%
CCc1cccc(C)c1NC(=O)c1ccccc1N(C)S(C)(=O)=O,-13.41%,0.6734%,-0.5163%,-2.02%,15.4%
c1cc(CN2CC[C@H]3O[C@@H](COCC4CCOCC4)CC[C@H]32)ccn1,-2.208%,1%,1.052%,6.863%,-8.05%
Cc1ccnc(Cn2cc(-c3cccc(C(C)N(C)C)c3)nn2)c1 (centres undefined),-3.887%,5.398%,-2.514%,0%,48.2%
Cc1cc(C(=O)NCc2ccc(N3CCCC(C(N)=O)C3)cc2)no1 (centres undefined),-2.242%,3.781%,1.28%,0.3774%,-12.01%
NC(=O)CN1CCC2(CC1)CC(=O)c1ccc3ccccc3c1O2,-282.5%,2.427%,-0.1141%,2.273%,33.86%
COc1ccc2c(C)c(C(=O)NC3CCN(S(C)(=O)=O)CC3)oc2c1,3.239%,14.53%,2.417%,4.255%,-14.24%
CS(=O)(=O)CCC(=O)Nc1ccsc1,-7.136%,4.54%,1.871%,8.642%,-19.59%
CC1CCCCN1C(=O)c1ccc2c(c1)OCCCO2 (centres undefined),9.505%,-32.81%,9.68%,5.172%,-3.703%
CN(Cc1ccccc1)C(=O)CCS(=O)(=O)c1ccc2c(c1)OCCO2,-6.487%,-0.128%,-3.873%,-1.84%,12.03%
COCCOc1ncccc1CNC(=O)N1CCCCCC1,6.306%,2.561%,-0.02323%,5.422%,-21.25%
CCc1n[nH]c(=O)c(C(=O)N2CCOC3(CCCC3)C2)c1CC,-3.884%,5.19%,3.069%,8.696%,3.311%
CCS(=O)(=O)N1CCC(c2nccn2Cc2ccccn2)CC1,-10.09%,-1.24%,3.111%,7.065%,-36.87%

Once more, the final 4:

| Compound | ClpP1P2 | CoaBC | PfKRS1 | TcHisRS | Pks13 thioesterase |
|---|---|---|---|---|---|
| `CN(Cc1ccccc1)C(=O)CCS(=O)(=O)c1ccc2c(c1)OCCO2` | -6.487% | -0.128% | -3.873% | -1.84% | 12.03% |
| `COCCOc1ncccc1CNC(=O)N1CCCCCC1` | 6.306% | 2.561% | -0.02323% | 5.422% | -21.25% |
| `CCc1n[nH]c(=O)c(C(=O)N2CCOC3(CCCC3)C2)c1CC` | -3.884% | 5.19% | 3.069% | 8.696% | 3.311% |
| `CCS(=O)(=O)N1CCC(c2nccn2Cc2ccccn2)CC1` | -10.09% | -1.24% | 3.111% | 7.065% | -36.87% |